In PubChem BioAssay AID504706 (National Center for Advancing Translational Sciences (NCATS), 2011):
Out of some 320,000 compounds screened, about 200 (0.062%) were called active. Roughly 6% stayed inconclusive and do not appear here. Calls come from the whole dose curve; as a rule, active = well fitted activation curve with a large enough effect; inconclusive = small, poorly fitted or top-dose-only effect; inactive = no such curve, though single readings can be large or run the other way. This is a selection; strong and weak results do not stand in their true shares. Entries without a call were filed so in the source.

Experiment: qHTS assay for re-activators of p53 using a Luc reporter; note: nearly all actives have a fitted effect of over 45% in size; for activity change, positive = activation: % of control where 0% means no effect
Details: H1299 p53-A138V BP100-luciferase reporter, luminescence, 24 h; activity change, positive = activation: at 92.2 µM (top of the series)
In short: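 H1299 (p53-null), stable ts p53-A138V + BP100-Luc; 1000 cells/well, Opti-MEM/10% FBS; cpd 4 pt, 1:5; 24 h, 37 deg C, 5% CO2; detection reagent 10 min RT; luminescence.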
Potency is the fitted concentration of half-maximal effect.

SMILES	activity change, positive = activation	Potency
O=C(NNC(=O)c1cc2ccccc2oc1=O)c1ccccc1	34.2%	–
CC(=O)Nc1ccc(/C=C/c2noc(-c3ccccc3O)n2)cc1	32%	–
CCN(CC)c1ccc2nc3ccccc3[n+](CC)c2c1	inactive: -93.7%	–
CC[C@]12c3[nH]c4cc(-c5ccco5)ccc4c3CCN1C(=O)[C@@H](CC(=O)NC/C=C(\C)CCC=C(C)C)C[C@@H]2C(=O)N1CCN(C(=O)C2CC2)CC1	30.4%	–
Clc1ccc(OCc2nc(-c3ccccn3)no2)c(Br)c1	61.5%	–
Cc1csc2ncc(C(=O)Nc3ccc4c(c3)OCCO4)c(=O)n12	33.7%	–
COc1ccc(OC)c(C2C(C#N)=C(N)N(N(C)C)C3=C2C(=O)CCC3)c1 (stereo unspecified)	47.5%	–
COc1ccc(NC(=O)Nc2ccc3nccnc3c2)cc1	54.6%	–
O=C(N/N=C/c1cn(-c2ccccc2)nc1-c1cc2ccccc2o1)c1ccccc1Br	69%	–
Fc1ccc(-c2csc(/C=C/c3ccc4c(c3)OCO4)n2)cc1	73.7%	–
O=C(CCN1C(=O)NC2(CCCC2)C1=O)Nc1ccc(-c2nc3ccccc3s2)cc1	51.6%	–
CC(=O)c1ccc(N2CCN(C(=O)c3ccco3)CC2)c(F)c1	35.8%	–
NNC(=O)c1cccc(COc2ccc(Br)cc2)c1	134%	–
Cc1nc2cc(NC(=O)N3c4ccccc4CC3C)ccc2n1C (stereo unspecified)	61%	–
COC(=O)c1ccc(NN=Nc2ccc(C)cc2)cc1	37.1%	–
COc1ccc2ccc3c(c2c1)N=CC1(O3)N(C)c2ccccc2C1(C)C (stereo unspecified)	inactive: -31.5%	–
Cc1ccc2nc(-c3ccc(NC(=O)COC(=O)c4ccc([N+](=O)[O-])o4)cc3)sc2c1	–	active: 3.16 µM
CCCn1c(C)cc(C(=O)CSc2nc3ccccc3c(=O)n2Cc2ccco2)c1C	–	active: 25.1 µM
O=C(O)CCCC(=O)NCCc1ccncc1	39.4%	–
Cc1cccc(NC(=O)CCCN=C2NS(=O)(=O)c3ccccc32)c1C	23.2%	–
Cc1nn(-c2ccccc2)c(C)c1/C=N/Nc1nc2ccccc2[nH]1	1.69%	–
COc1ccc(C(=O)c2c(C(F)(F)F)oc3c2C(=O)c2ccccc2C3=O)cc1OC	inactive: -15.5%	–
CN1c2ccccc2C(C)(C)C12C=Nc1c(ccc3ccccc13)O2 (stereo unspecified)	inactive: -30.3%	–

SMILES	activity change, positive = activation	Potency
N#Cc1cc2c(nc1SCc1nc3ccccc3[nH]1)CCC2	83%	–
COc1ccc(-c2cc3cc(F)ccc3cn2)cc1	39.2%	–
CNS(=O)(=O)c1cccc(C(=O)OCC(=O)Nc2sc3c(c2C#N)CCCCC3)c1	53.3%	–
Cn1c(SCCOc2ccc(Cl)cc2)nnc1-c1ccncc1	inactive: -33.4%	–
O=c1c2c3c(sc2nc2n1CCCCC2)CCCCC3	46.4%	–
Nc1cc(N)nc(SCc2ccccc2)n1	34.5%	–
Cc1ccc2nc(-c3ccc(NC(=O)CN4C(=O)NC(C)(c5ccc(OC(F)F)cc5)C4=O)cc3)sc2c1 (stereo unspecified)	63%	–
Cc1cccc(NC(=S)NNC(=O)COc2ccc(Cl)cc2Cl)c1	34.3%	–
Cc1ccc(N2C(=O)C(Cl)=C(NCc3ccccc3)C2=O)c(C)c1	62.8%	–
CCOc1ccc(C(NC(=O)CC)c2c(O)ccc3ccccc23)cc1 (stereo unspecified)	inactive: -64.7%	–
CCOC(=O)c1csc(NC(=O)CSc2nnnn2-c2cccc(OC)c2)n1	34.4%	–
C=CCc1c(Cl)nc(C)nc1NCc1ccccc1	inactive: -31.2%	–
COc1cc(/C=C/C(=O)c2ccc(C)cc2)ccc1OCC#N	inactive: -28%	–
O=C(O)c1cccc(-n2cc(-c3cccc(C(F)(F)F)c3)cn2)c1	37%	–
COc1cccc(Nc2nc(NCC3CCCO3)c3ccccc3n2)c1 (stereo unspecified)	53.1%	–
COC1(OC)C(/C=C/c2ccc(Cl)cc2)C(C#N)(C#N)C1(OC)OC (stereo unspecified)	inactive: -35.1%	–
COc1cc(C(Nc2ccccn2)c2ccc3ccc(C)nc3c2O)cc(OC)c1O (stereo unspecified)	inactive: -30.2%	–
Cc1c(C(=O)OC2CCC(C)CC2)[nH]c2c1C(=O)CCC2 (stereo unspecified)	148%	–
COc1cc(OC)nc(-n2ncc(Br)c(Br)c2=O)n1	inactive: -35.4%	–
CCCCn1c(SCC(=O)NCc2ccco2)nc2ccc(N3CCOCC3)cc2c1=O	inactive: -10.1%	–
COc1ccc(C(=O)COC(=O)c2ccccc2O)c(OC)c1	49.8%	–
Cc1ccc(C)c(N2CCN(c3cnn(-c4nc5ccccc5s4)c(=O)c3Cl)CC2)c1	226%	–
CCOC(=O)c1ccccc1N/C=C/C(=O)c1cccs1	–	active: 15.8 µM

SMILES	activity change, positive = activation	Potency
N#Cc1cccc(N=Cc2c(O)ccc3ccccc23)c1	210%	–
CCOc1ccccc1NC(=O)Cn1nnc(C(=O)NCc2cccs2)c1N	57.3%	–
c1ccc2oc(SCc3cn4ccccc4n3)nc2c1	37.4%	–
COc1ccc(N2CCN(C(=O)COC(=O)c3ccc(OC(F)F)cc3)CC2)cc1	38.4%	–
Cc1ccc(NC2=CC(=O)C(=O)c3ccccc32)cc1	inactive: -36.3%	–
COCCNc1nc2sc3c(c2c(=O)n1Cc1ccco1)CCCCC3	40.1%	–
Cn1c(C(=O)NN)cc2cc(Oc3ccccc3)ccc21	inactive: -39.5%	–
O=C(O)c1cc2nc3c(c(C(F)(F)F)n2n1)CCc1ccccc1-3	27.2%	–
Cc1ccnc(NC(=O)/C=C/c2cccs2)c1	106%	–
COc1ccc2nc(-c3ccccc3)[nH]c2c1	25.1%	–
CCOc1ccccc1/C=C/c1nc2ccccc2[nH]c1=O	inactive: -47.9%	–
COc1ccccc1N/C=C/c1onc(C)c1[N+](=O)[O-]	34.2%	–
COc1ccc(CNC(=O)c2ccc(CNc3c(NC4CCCCC4)c(=O)c3=O)cc2)cc1	47.9%	–
CCn1nnc(-c2ccccc2NS(=O)(=O)c2ccc(S(=O)(=O)N3CCCCCC3)cc2)n1	45.5%	–
N#C/C(=C/c1ccc(N2CCOCC2)o1)c1nc2ccccc2[nH]1	49.4%	–
O=C(NCC1OCCc2ccccc21)c1ccc(NC(=O)c2ccc(Cl)cc2)cc1 (stereo unspecified)	inactive: -43.3%	–
Cc1cc(O)c(C2(C(F)(F)F)NCCNC2=O)cc1C (stereo unspecified)	31.4%	–
O=C1C=CC(=O)N1CCCCCCN1C(=O)C=CC1=O	-47.4%	–
CNC(=O)N(c1ccccc1)c1ccccc1	32.3%	–
CN(C)c1ccc(-c2cc3ccccc3c(=O)o2)cc1	52.1%	–
Clc1cccc(-c2nnc(-c3ccccc3)o2)c1	39.3%	–
C/C(=C\C(=O)c1ccc(F)cc1)NCc1ccc2c(c1)OCO2	22.2%	–
COc1ccc(NC(=O)c2ccc(CN3CCc4ccccc4C3)cc2)cc1OC	inactive: -27%	–

SMILES	activity change, positive = activation	Potency
CCNC(=O)N1C(CC(=O)OCC)C(=O)NC2CCCCC21 (stereo unspecified)	36.6%	–
CS(=O)(=O)c1nc(-c2cccs2)cc(C(F)(F)F)n1	inactive: -30.6%	–
Cc1ccc(C)c(/C=C/C(=O)c2ccccc(=O)c2O)c1	52.7%	–
COC(=O)/C(=C1/Oc2cc(C)oc(=O)c2S1)C(F)(F)F	inactive: -36.3%	–
Cc1ccsc1/C=N/Nc1nc2ccccc2s1	80.7%	–
Cc1ccc(C(=O)COC(=O)c2cccc(N3C(=O)c4c(C)nc5ccccc5c4C3=O)c2)cc1C	–	active: 35.5 µM
O=[N+]([O-])c1ccc(/C=N/Nc2nc3ccccc3o2)cc1	34.7%	–
Cn1c(N2CCN(C(c3ccccc3)c3ccccc3)CC2)nc2ccccc21	inactive: -41.5%	–
Cc1ccc2c(COC(=O)C3=COCCO3)cc(=O)oc2c1	69.1%	–
O=C(Nc1ccc(N2CCCC2)cc1)c1cccc(Cl)c1	48%	–
c1ccc2nc(-c3ccc(N4CCOCC4)cc3)ccc2c1	22.5%	–
Cc1ccc(S(=O)(=O)NCCC(=O)Nc2ccc(C)cc2C(=O)c2ccccc2)cc1	43.3%	–
COc1cccc(C(=O)Nc2nc(-c3ccc(S(=O)(=O)N4CCOCC4)cc3)cs2)c1	inactive: -28.3%	–
Cc1cc2ncc(-c3cccs3)nc2cc1C	50.1%	–
CCN(CC)c1ccc2nc3c4ccccc4c(=O)cc-3oc2c1	41%	–
Cc1ccc2oc(-c3ccc(C)c(NC(=S)NC(=O)c4cccs4)c3)nc2c1	125%	–
FC(F)(F)c1ccnc(NCc2ccc(Cl)cc2)n1	38.4%	–
COc1ccc(C(NC(=O)c2c(F)c(F)c(F)c(F)c2F)c2ccccc2)cc1 (stereo unspecified)	inactive: -24.9%	–
CCOc1ccc(CN2C(=O)c3ccccc3C2C(=O)NCc2cccnc2)cc1 (stereo unspecified)	22.8%	–
Cn1nnc(-c2ccc(OCc3ccccc3F)cc2)n1	38.2%	–
Cc1nnnn1/C(=C\c1ccccc1)C(=O)OCC(=O)Nc1cccc(S(=O)(=O)N(C)C)c1	inactive: -44.4%	–
CC(C)(C)NC(=O)NC(=O)COc1ccccc1C#N	54.9%	–
COc1ccc2c(c1)O[C@H](c1ccc3c(c1)OCO3)[C@@H](OC(=O)Nc1cc(OC)c(OC)c(OC)c1)C2=O	inactive: 3.57%	–

Reprinted at random: four entries already listed, in no set order.
SMILES	activity change, positive = activation	Potency
Cc1cc2ncc(-c3cccs3)nc2cc1C	50.1%	–
Cc1nnnn1/C(=C\c1ccccc1)C(=O)OCC(=O)Nc1cccc(S(=O)(=O)N(C)C)c1	inactive: -44.4%	–
COc1ccc(C(NC(=O)c2c(F)c(F)c(F)c(F)c2F)c2ccccc2)cc1 (stereo unspecified)	inactive: -24.9%	–
O=C(Nc1ccc(N2CCCC2)cc1)c1cccc(Cl)c1	48%	–

(list continues)

SMILES	activity change, positive = activation	Potency
O=c1c2ccccc2c(C=Nc2cccc(O)c2)c(O)n1-c1ccc2c(c1)OCO2	inactive: -33.1%	–
O=C1/C(=C\c2cccs2)Sc2ccc3ccccc3c21	69.1%	–
COc1ccc(-c2nc(-c3ccc(NC(=O)c4ccncc4)cc3)no2)cc1OC	68.8%	–
O=C(Nc1ncc([N+](=O)[O-])s1)c1cccc([N+](=O)[O-])c1	36.6%	–
C/C(N)=C(/C#N)C(=O)CSc1nnc(-c2ccc3c(c2)OCO3)o1	38.7%	–
Cc1cccnc1NC(=O)c1ccc([N+](=O)[O-])o1	–	active: 11.2 µM
O=C(Nc1ccc2c(c1)OCCO2)NC1CCCCC1	27.7%	–
O=C(CCNc1ccc(Cl)cc1)c1cccs1	–	active: 15.8 µM
Cc1ccc(C(=O)N/N=C2\CCc3ccccc32)c(C)c1	82.9%	–
O=C(/C=C/Nc1ccc(Br)cc1F)c1ccccc1	25.2%	–
Cc1cc(C)n(-c2ccc(C(=O)Nc3nc4ccccc4s3)cc2)n1	42.3%	–
CS(=O)(=O)N1CCN(Cc2cc(=O)n3ccsc3n2)CC1	inactive: -51.5%	–
C=CCn1c(C)cc(C(=O)CSc2nc3ccccc3o2)c1C	49.6%	–
COc1ccc(-c2cc3nnc(-c4ccccc4)nc3s2)cc1	61.5%	–
Cc1ccc(-c2cc(=O)c3cc(C)ccc3[nH]2)cc1	–	active: 22.4 µM
CC1C/C(=C\c2cccnc2)C(=O)/C(=C/c2cccnc2)C1 (stereo unspecified)	inactive: -19.6%	–
O=C(Nc1ccc(-c2nc3ccccc3o2)cc1)C1CCCO1 (stereo unspecified)	43.3%	–
COc1ccc(-c2csc(Nc3ncccc3C)n2)cc1	–	active: 44.7 µM
O=C(N/N=C/c1ccccc1O)C1CC(=O)N(c2ccc(Cl)cc2)C1 (stereo unspecified)	–	active: 31.6 µM
